{"source": "patent US20250325793A1", "about": "“INTRACALVARIOSSEOUS DRUG ADMINISTRATION DEVICE FOR DELIVERING DRUG BY BYPASSING BLOOD-BRAIN BARRIER” (GACHON UNIVERSITY OF INDUSTRY-ACADEMIC COOPERATION …, priority 2023, published 2025)", "conditions": "rat, in vivo"}
{"compound": "COc1cc2c(cc1OC)C(=O)C(CC1CCN(Cc3ccccc3)CC1)C2", "note": "(centres unmarked) [DPZ, donepezil]", "values": [{"measurement": "AUCISF of the ICO administration group compared with the IV administration group", "result": "relatively higher"}, {"measurement": "AUCplasma of the ICO administration group compared with the IV administration group", "result": "relatively lower"}]}
